# Results of single-concentration screens

Measurements from “University of Dundee, Small-Polar-MMV Screening Library” (2021), ChEMBL document CHEMBL3988442.

Mtb cholesterol medium: 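Phenotypic screen: M. tuberculosis growth, cholesterol and DPPC medium, 4 days; the read-out is not stated. Tested at 50 µM. Higher reads as more growth inhibition (inferred: compounds with an IC50 in retests scored well above the rest). Size under these conditions: about 69,000 compounds, about 370 of them at 50% or above in at least one test.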
Mtb glucose medium: 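Whole-cell growth test on Mycobacterium tuberculosis, read after 3 days in glucose-containing 7H9 medium; the read-out is not stated. Concentration: 50 µM. The record gives no direction; compounds that gave an IC50 in retests scored well above the rest, so higher reads as more growth inhibition. Size under these conditions: about 69,000 compounds, about 760 of them at 50% or above in at least one test.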

Results are given as percent effect.
How 0% and 100% were set is not recorded. Most values in the screen are low, and negative values occur.
Compounds were drawn at random from those tested, without regard to their results.
Two or more numbers in one place are separate tests of the same structure; such repeats can differ widely.

CS(=O)(=O)N1CCC(Oc2cnccn2)CC1 gave Mtb cholesterol medium: 15.74%; Mtb glucose medium: 27.13%. For Cc1cnn(CCC(=O)N2CCN(c3ncccc3Cl)CC2)c1 the result was Mtb cholesterol medium: -20.48%; Mtb glucose medium: -18.91%. With O=C(O)C(F)(F)F.O=C(c1ccco1)N1CCC2(CCCN(c3ncccn3)C2)C1 (centres undefined) the screen gave Mtb cholesterol medium: -22.54%; Mtb glucose medium: -51.13%. CCN(CCOC)C(=O)c1cc(COc2ccc3c(c2)CCCC3)on1 gave Mtb cholesterol medium: 15.92%; Mtb glucose medium: 34.49%. For CN(C)CCN(Cc1ccc(Cl)cc1)C(=O)c1cc[nH]n1 the result was Mtb cholesterol medium: 3.934%; Mtb glucose medium: 17.11% and -4.84%. For COCCNc1ccc(CC2CCNC2)cn1 (centres undefined) the result was Mtb cholesterol medium: -0.8158%; Mtb glucose medium: -10.85%. Cc1cnn(CC2CCCN2c2ncnc3ccccc23)c1 (centres undefined) gave Mtb cholesterol medium: 20.74%; Mtb glucose medium: 3.293% and 5.246%. O=C(NC1CCN(c2cccc(OC(F)(F)F)c2)C1=O)C1CC1 (centres undefined) gave Mtb cholesterol medium: -6.942% and -4.456%; Mtb glucose medium: 16.34%.

Cc1noc2nc(C3CCN(CC4CCCCC4)CC3)cc(C(F)F)c12.Cl read Mtb cholesterol medium: 13.97%; Mtb glucose medium: 9.838%. With CCN1CCN(C(=O)NCCOc2ccc3c(c2)OCO3)CC1 the screen gave Mtb cholesterol medium: -20.28%; Mtb glucose medium: 0.01189%. For O=C(CNC(=O)c1c(F)cccc1Cl)Nc1ccc(F)cn1 the result was Mtb cholesterol medium: 1.679%; Mtb glucose medium: -4.498%. With CCC(Nc1nc(C(F)(F)F)nc2ccccc12)C(=O)O (centres undefined) the screen gave Mtb cholesterol medium: -6.443%; Mtb glucose medium: -35.87%. With Cc1cc(N2CCC(O)(CN(C)C(=O)CCCN)C2)c2cnccc2n1 (centres undefined) the screen gave Mtb cholesterol medium: 2.687% and 2.543%; Mtb glucose medium: 9.055%. For CC(C)N1CCCC(C(=O)N2CCc3c(nc(CC4CC4)[nH]c3=O)C2)C1 (centres undefined) the result was Mtb cholesterol medium: -21.17%; Mtb glucose medium: -12.85%. Result for CCc1c(C(=O)N2CCOC(C)(C)C2)cnn1-c1ccccn1 was Mtb cholesterol medium: -2.78%; Mtb glucose medium: 25.71%. For CC1(Cc2ccc(Cl)cc2)Cc2cc(CCC(=O)O)ccc2O1 (centres undefined) the result was Mtb cholesterol medium: 9.923% and 11.96%; Mtb glucose medium: 34.9%.

With N#Cc1ccc(CN2CCC(CCc3ccc(O)cc3)CC2)cc1 the screen gave Mtb cholesterol medium: 21.6%; Mtb glucose medium: 30.47% and 17.78%. For CN(C)c1ccc(C(=O)NCC2(O)CCOCC2)cc1 the result was Mtb cholesterol medium: 15.98%; Mtb glucose medium: -8.306%. CN(C)C(=O)c1n[nH]c2c1CN(Cc1ccccn1)CC2.O=C(O)C(F)(F)F read Mtb cholesterol medium: 15.46%; Mtb glucose medium: -1.246%. O=C1OCCN1CCNc1ncc2c(n1)CCN2c1ccccc1 read Mtb cholesterol medium: -0.6725%; Mtb glucose medium: 21.69% and 3.845%. For Cc1cnn(C2CN(CC(O)c3ccccc3)C2)c1 (centres undefined) the result was Mtb cholesterol medium: 16.32%; Mtb glucose medium: 32.7%. Cc1ccc2cc(C(=O)NCCN3CCS(=O)(=O)CC3)c(C)nc2c1 read Mtb cholesterol medium: 18.6% and 28.09%; Mtb glucose medium: -27.18%. CCCOC(=O)N1CCn2nc(-c3nc4ccccc4n3C)cc2C1 gave Mtb cholesterol medium: -1.122%; Mtb glucose medium: 3.66%. With O=C(Nc1ncc[nH]1)c1cc(-c2cccnc2)n[nH]1 the screen gave Mtb cholesterol medium: 7.577%; Mtb glucose medium: -5.298%.

CO[C@H]1CN(C(C)C)C[C@@H]1NC(=O)c1cc(-c2ccccc2O)n[nH]1 gave Mtb cholesterol medium: -13.22%; Mtb glucose medium: 10.34%. CN(C)C(=O)COc1ccccc1CN1CCOC2(CCCC2)C1 gave Mtb cholesterol medium: 1.742%; Mtb glucose medium: -11.15% and -1.564%. O=C(CN1CCN(c2ccc3nncn3n2)CC1)NC1CCCC1 gave Mtb cholesterol medium: 6.624%; Mtb glucose medium: 17.92%. CCOc1ccc(NC(=O)Nc2cc(N3CCCCC3)ncn2)cc1 gave Mtb cholesterol medium: 4.697%; Mtb glucose medium: 27.49% and 0.2313%. With CCCNC(=O)CNc1ccccc1OCCC(=O)OC the screen gave Mtb cholesterol medium: 15.53%; Mtb glucose medium: -4.48% and 17.02%. [H][C@@]12CN(Cc3ccccc3)C[C@]1([H])N(CCCN1CCOCC1)C(=O)O2 gave Mtb cholesterol medium: -5.671%; Mtb glucose medium: 5.761%.

2 of the entries, repeated:

{"structure": "O=C(CN1CCN(c2ccc3nncn3n2)CC1)NC1CCCC1", "Mtb cholesterol medium": 6.624, "Mtb glucose medium": 17.92}
{"structure": "CS(=O)(=O)N1CCC(Oc2cnccn2)CC1", "Mtb cholesterol medium": 15.74, "Mtb glucose medium": 27.13}